The record followed here is article PMC3598691.

Assay [1] has as its target T1, FLAG-dADA2bL (Drosophila melanogaster) (UniProt Q8I8V0).
T1 sequence: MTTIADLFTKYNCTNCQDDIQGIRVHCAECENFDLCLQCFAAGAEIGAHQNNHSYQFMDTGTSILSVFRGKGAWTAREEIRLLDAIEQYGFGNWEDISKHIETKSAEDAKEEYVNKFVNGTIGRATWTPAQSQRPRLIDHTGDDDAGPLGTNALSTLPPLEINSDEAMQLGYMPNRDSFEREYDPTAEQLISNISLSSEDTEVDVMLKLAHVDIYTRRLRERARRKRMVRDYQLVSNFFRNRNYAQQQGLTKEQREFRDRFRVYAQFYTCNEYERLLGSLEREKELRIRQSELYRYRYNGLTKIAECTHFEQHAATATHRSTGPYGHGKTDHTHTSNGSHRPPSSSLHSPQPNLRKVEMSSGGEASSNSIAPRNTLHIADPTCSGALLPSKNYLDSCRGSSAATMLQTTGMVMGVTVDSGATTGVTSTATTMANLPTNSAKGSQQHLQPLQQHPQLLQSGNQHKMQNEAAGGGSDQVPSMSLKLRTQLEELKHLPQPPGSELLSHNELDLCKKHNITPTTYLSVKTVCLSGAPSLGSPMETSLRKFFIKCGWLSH
The experiment in a line: co-IP; FLAG- and HA-tagged proteins co-expressed in S2 cells; lysis in RIPA buffer (150 mM NaCl, 1% NP-40, 0.5% SDS); lysates incubated overnight with anti-FLAG M2-agarose beads; five washes with TBST (400 mM NaCl, 1% Tween 20); blots with anti-HA and anti-FLAG.

Assay [2] addresses T2, FLAG-dADA2bS (Drosophila melanogaster) (UniProt Q8I8V0).
T2 sequence: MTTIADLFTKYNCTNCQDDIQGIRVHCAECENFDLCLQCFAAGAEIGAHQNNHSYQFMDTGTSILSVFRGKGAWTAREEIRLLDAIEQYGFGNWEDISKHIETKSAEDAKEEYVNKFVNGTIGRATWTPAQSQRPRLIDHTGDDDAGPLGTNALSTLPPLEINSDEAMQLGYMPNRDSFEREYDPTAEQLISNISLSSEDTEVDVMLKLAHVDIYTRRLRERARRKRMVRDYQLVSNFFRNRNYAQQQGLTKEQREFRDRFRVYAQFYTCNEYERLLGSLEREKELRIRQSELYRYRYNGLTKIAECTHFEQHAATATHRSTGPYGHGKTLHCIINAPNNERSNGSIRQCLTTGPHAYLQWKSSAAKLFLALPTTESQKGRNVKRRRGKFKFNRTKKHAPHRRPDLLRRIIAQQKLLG
The description is as above.

Results are given in words; binding and its absence hold for the method and conditions named. Binding seen in cells or lysates may run through a third protein. Binding calls can cover weak binding; strength is not graded here. Sequences can lack the tags named with a protein.

Take HA-dADA3 (Drosophila melanogaster): the binding entry in assay [1] and in assay [2] was “binds” throughout.

On to HA-dp53 (Drosophila melanogaster), for which the binding entry in assay [1] and in assay [2] was “binds” each time.
